Results taken from PubChem BioAssay AID485353 (National Center for Advancing Translational Sciences (NCATS), 2010).
The campaign covered roughly 330,000 compounds. About 610 (0.18%) were called active. The inconclusive results got no clear call from the source; some entries with a clear call stand among them for comparison. Calls follow the shape of the full dose curve. Potencies of inconclusive entries are doubtful fits and often do not repeat.

assay: qHTS of Yeast-based Assay for SARS-CoV PLP; also: nearly all actives have a fitted effect of over 55% in size; details: S. cerevisiae expressing SARS-CoV PLpro; Potency: growth rescue; series mostly up to 32.9 µM
Potency is read from the fitted curve at half-maximal effect.

| Structure (SMILES) | Potency |
| --- | --- |
| Cc1nc2c(-c3ccc(Cl)cc3)c(C)[nH]n2c(=O)c1Cc1ccccc1 | inactive |
| O=C(Nc1ccnn1C1CCN(Cc2cc(Cl)ccc2O)CC1)C1CC1 | inconclusive: 4.47 µM [activator, single point] |
| O=C(NCCN1CCOCC1)c1ccccc1[N+](=O)[O-] | inconclusive: 0.316 µM [activator, full curve, poor fit] |
| Cc1ccc(C2C(C(=O)O)c3ccccc3C(=O)N2C)c(C)c1 (stereo not given) | inconclusive: 2.82 µM [activator, full curve, poor fit] |
| CC(=O)NC1=NN(C(C)=O)C(C)(c2ccc3ccccc3c2)S1 (stereo not given) | inconclusive: 11.2 µM [activator, partial curve] |
| CN(C)Cc1cc(C(C)(C)c2cc(CN(C)C)c(O)c(CN(C)C)c2)cc(CN(C)C)c1O | active: 12.6 µM |
| CCN(CC)c1ccc(NC(=O)c2ccco2)c(C)c1 | inconclusive: 20 µM [activator, single point] |
| ONC=Nc1cccc2nonc12 | inactive |
| CC(C)NS(=O)(=O)c1ccc2c(c1)NCC2 | inconclusive: 1.58 µM [activator, partial curve] |
| CCc1sc(C(=O)Nc2ccc(F)cc2C)cc1C | inactive |
| O=[N+]([O-])c1ccc2nc(-c3ccccn3)[nH]c2c1 | inconclusive: 22.4 µM [activator, single point] |
| O=C(CSc1ccc(-c2ccco2)nn1)Nc1cccc(F)c1 | inconclusive: 3.98 µM [activator, single point] |
| O=C(COc1cc2oc(=O)c3c(c2cc1Cl)CCC3)NCC(O)c1ccccc1 (stereo not given) | inactive |
| NC(=O)C1CCN(C(=O)CCSCc2ccccc2)CC1 | inconclusive: 0.316 µM [activator, partial curve, poor fit] |
| COc1ccccc1OCC(=O)N/N=C/c1c(O)ccc2ccccc12 | inconclusive: 2.82 µM [activator, single point] |
| CCCc1cc(=O)n2[nH]c(-c3cccc(Br)c3)cc2n1 | inconclusive: 15.8 µM [activator, single point] |
| COc1ccc(S(=O)(=O)NCc2ccncc2)cc1OC | inconclusive: 3.55 µM [activator, single point] |
| Cc1ccc(C(NC(=O)N2CCCC2)C(Cl)Cl)cc1F (stereo not given) | inactive |
| OC(COCc1ccccc1)CN1CCCC1 (stereo not given) | inconclusive: 20 µM [activator, partial curve] |
| Cc1ccc(NC(=S)NC(=O)C2CC2)cc1Cl | inconclusive: 2.82 µM [activator, single point] |
| N#C/C(C(=O)N1CCOCC1)=C1/SC(Cc2ccccc2Cl)C(=O)N1c1ccccc1 (stereo not given) | inconclusive: 2.51 µM [activator, full curve, poor fit] |
| O=C(c1ccco1)N(Cc1ccc(Cl)cc1)Cc1ccco1 | inconclusive: 3.16 µM [activator, single point] |
| Cc1cc(C)n(-c2ccc(C(=O)OCC(=O)NCc3ccc(F)cc3)cc2)n1 | inconclusive: 20 µM [activator, single point] |

| Structure (SMILES) | Potency |
| --- | --- |
| Fc1ccccc1OCCn1c(=S)[nH]c2ccccc21 | inconclusive: 22.4 µM [activator, single point] |
| O=C(/C=N/O)NCc1ccncc1 | inconclusive: 4.47 µM [activator, partial curve] |
| COc1ccc2cc3cc(C(=O)N4CCCCC4C)oc3nc2c1 (stereo not given) | inconclusive: 2.24 µM [activator, partial curve] |
| CCN(CC)Cc1oc(CO)cc(=O)c1O | inconclusive: 12.6 µM [activator, single point] |
| O=C1N/C(=C/c2cccn2-c2ccc(F)cc2)C(=O)N1Cc1ccccc1F | inconclusive: 5.01 µM [activator, partial curve] |
| CCOc1ccccc1N1CCN(C(=S)Nc2ccc(S(=O)(=O)Nc3ncccn3)cc2)CC1 | inconclusive: 2.24 µM [activator, partial curve, poor fit] |
| COc1cc(OC)c(OC)cc1CNc1cc(C)ccc1OC | inactive |
| CCN(CC)CC(O)Cn1c2ccccc2c2ccccc21 (stereo not given) | inactive |
| COc1cc(/C=N/NC(=O)c2cccnc2)ccc1OC(=O)c1cccc(Br)c1 | inconclusive: 20 µM [activator, single point] |
| CCc1c(O)nc(SCC(=O)Nc2ccc(OC)cc2)n(C2CCCCC2)c1=O | inconclusive: 3.55 µM [activator, single point] |
| CCc1cccc(CC)c1NC(=S)NCc1ccc2[nH]c(C)cc2c1 | inconclusive: 4.47 µM [activator, single point] |
| CCC(=O)N1CCc2cc(S(=O)(=O)NC(Cc3ccccc3)C(=O)NC3CCCCC3)ccc21 (stereo not given) | inconclusive: 10 µM [activator, partial curve] |
| Cc1nn(CC(=O)NCC(C)c2ccccc2)c(=O)c2cc(-c3ccccc3)nn12 (stereo not given) | inconclusive: 20 µM [activator, single point] |
| c1ccc(C(c2ccccc2)c2ccn[nH]2)cc1 | inactive |
| Cc1cccc(NC(=O)NNC(=O)c2ccc3ccccc3c2O)c1 | inconclusive: 14.1 µM [activator, single point] |
| C=CCOc1ccccc1C1C2=C(CC(C)(C)CC2=O)Nc2c1c(=O)n(C)c(=O)n2C (stereo not given) | inconclusive: 3.98 µM [activator, single point] |
| CC(C)(C)c1ccc(C(=O)CSc2n[nH]c(=O)[nH]c2=O)cc1 | inactive |
| Cc1ccc(-c2nn(CC(=O)NCCN3CCOCC3)c(=O)c3ccccc23)cc1 | inconclusive: 3.98 µM [activator, single point] |
| CC1CC(=O)Nc2ccccc2N1S(=O)(=O)c1ccc(F)cc1F (stereo not given) | inactive |
| CCN(CC)c1ccc(/C=N/O)cc1 | inactive |
| Cc1ccc(-n2ncc3c2CC(C)(C)CC3NC(=O)Cc2c(C)noc2C)cc1 (stereo not given) | inconclusive: 2.51 µM [activator, single point] |
| CCOc1ccc(/C=N/NC(=S)Nc2c(C)cccc2C)cc1 | inconclusive: 11.2 µM [activator, partial curve] |

Rewritten with tabs: entries from further up.
Structure (SMILES)	Potency
Cc1ccc(C(NC(=O)N2CCCC2)C(Cl)Cl)cc1F (stereo not given)	inactive
OC(COCc1ccccc1)CN1CCCC1 (stereo not given)	inconclusive: 20 µM [activator, partial curve]
Cc1ccc(NC(=S)NC(=O)C2CC2)cc1Cl	inconclusive: 2.82 µM [activator, single point]
